From PMC5466602
Results are given in words; binding and its absence hold for the method and conditions named. In cells and extracts the contact can be indirect. These calls come from enrichment with a bait or labelling near it, and not all partners need be listed. Tags and fused reporters may be left off the sequences shown.

T1: Utp21p-TAP (S. cerevisiae) (UniProt Q06078)
T1 sequence: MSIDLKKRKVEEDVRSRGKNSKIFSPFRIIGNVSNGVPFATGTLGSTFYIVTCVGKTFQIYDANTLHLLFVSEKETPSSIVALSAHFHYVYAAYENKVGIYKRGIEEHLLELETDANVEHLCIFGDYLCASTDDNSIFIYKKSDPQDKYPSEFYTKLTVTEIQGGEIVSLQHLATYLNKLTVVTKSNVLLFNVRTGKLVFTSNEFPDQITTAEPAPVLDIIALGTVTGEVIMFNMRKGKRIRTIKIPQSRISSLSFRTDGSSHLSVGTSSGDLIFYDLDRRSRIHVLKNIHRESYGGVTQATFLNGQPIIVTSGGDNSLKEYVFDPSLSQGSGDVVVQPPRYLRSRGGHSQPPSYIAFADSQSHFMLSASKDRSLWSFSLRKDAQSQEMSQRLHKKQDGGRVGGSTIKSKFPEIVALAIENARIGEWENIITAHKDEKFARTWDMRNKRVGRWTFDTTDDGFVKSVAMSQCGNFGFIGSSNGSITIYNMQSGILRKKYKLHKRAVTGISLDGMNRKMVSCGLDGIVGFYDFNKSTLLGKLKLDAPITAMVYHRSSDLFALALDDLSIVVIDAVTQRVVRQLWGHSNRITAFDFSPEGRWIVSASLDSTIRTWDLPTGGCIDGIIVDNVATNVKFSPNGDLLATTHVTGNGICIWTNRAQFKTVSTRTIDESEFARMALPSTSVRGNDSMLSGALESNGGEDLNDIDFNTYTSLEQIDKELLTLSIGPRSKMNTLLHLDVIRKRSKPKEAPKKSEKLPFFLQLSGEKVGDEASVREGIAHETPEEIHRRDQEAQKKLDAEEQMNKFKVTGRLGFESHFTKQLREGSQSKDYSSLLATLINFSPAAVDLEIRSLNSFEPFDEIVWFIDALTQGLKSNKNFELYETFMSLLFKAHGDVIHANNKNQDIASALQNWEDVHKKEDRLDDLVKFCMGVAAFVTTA


biological target: T1, Utp21p-TAP (S. cerevisiae); test: affinity purification with mass spectrometry; Utp21p-TAP purified on IgG-coupled magnetic beads from yeast lysate, buffer PM; semi-quantitative iTRAQ mass spectrometry normalised to Utp21p-TAP; genomic GAL::HA-PWP2 shut off in glucose (8 h, 18 h or 14 h) with a plasmid-borne PWP2 allele or empty plasmid

Row | binding | Binder
1 | binds | Utp6p (protein, UniProt Q02354 1-440) MSKTRYYLEQCIPEMDDLVEKGLFTKNEVSLIMKKRTDFEHRLNSRGSSINDYIKYINYESNVNKLRAKRCKRILQVKKTNSLSDWSIQQRIGFIYQRGTNKFPQDLKFWAMYLNYMKARGNQTSYKKIHNIYNQLLKLHPTNVDIWISCAKYEYEVHANFKSCRNIFQNGLRFNPDVPKLWYEYVKFELNFITKLINRRKVMGLINEREQELDMQNEQKNNQAPDEEKSHLQVPSTGDSMKDKLNELPEADISVLGNAETNPALRGDIALTIFDVCMKTLGKHYINKHKGYYAISDSKMNIELNKETLNYLFSESLRYIKLFDEFLDLERDYLINHVLQFWKNDMYDLSLRKDLPELYLKTVMIDITLNIRYMPVEKLDIDQLQLSVKKYFAYISKLDSASVKSLKNEYRSYLQDNYLKKMNAEDDPRYKILDLIISKL
2 | binds | Nop6p (protein, UniProt Q07623 1-225) MGSEEDKKLTKKQLKAQQFRKSKEEKDQEKDVKKEQAPEGKRPNSAAGNDGEEPVKKKRKTRRGRGGKGKNGKKGNRFIVFVGSLPRDITAVELQNHFKNSSPDQIRLRADKGIAFLEFDADKDRTGIQRRMDIALLQHGTLLKEKKINVELTVGGGGNSQERLEKLKNKNIKLDEERKERLTKMINDGNQKKIAKTTATAAQTSGTDNKPVPAGIHPDRAKLLK
3 | binds | Utp18p (protein, UniProt P40362 1-594) MTMATTAMNVSVPPPDEEEQLLAKFVFGDTTDLQENLAKFNADFIFNEQEMDVEDQEDEGSESDNSEEDEAQNGELDHVNNDQLFFVDDGGNEDSQDKNEDTMDVDDEDDSSSDDYSEDSEEAAWIDSDDEKIKVPILVTNKTKKLRTSYNESKINGVHYINRLRSQFEKIYPRPKWVDDESDSELDDEEDDEEEGSNNVINGDINALTKILSTTYNYKDTLSNSKLLPPKKLDIVRLKDANASHPSHSAIQSLSFHPSKPLLLTGGYDKTLRIYHIDGKTNHLVTSLHLVGSPIQTCTFYTSLSNQNQQNIFTAGRRRYMHSWDLSLENLTHSQTAKIEKFSRLYGHESTQRSFENFKVAHLQNSQTNSVHGIVLLQGNNGWINILHSTSGLWLMGCKIEGVITDFCIDYQPISRGKFRTILIAVNAYGEVWEFDLNKNGHVIRRWKDQGGVGITKIQVGGGTTTTCPALQISKIKQNRWLAVGSESGFVNLYDRNNAMTSSTPTPVAALDQLTTTISNLQFSPDGQILCMASRAVKDALRLVHLPSCSVFSNWPTSGTPLGKVTSVAFSPSGGLLAVGNEQGKVRLWKLNHY

The remaining lines, values behind:

Row | Binder | binding
4 | Pwp2p-ΔC206 (aa 1–717) (domain or fragment, UniProt P25635 1-717) MKSDFKFSNLLGTVYRQGNITFSDDGKQLLSPVGNRVSVFDLINNKSFTFEYEHRKNIAAIDLNKQGTLLISIDEDGRAILVNFKARNVLHHFNFKEKCSAVKFSPDGRLFALASGRFLQIWKTPDVNKDRQFAPFVRHRVHAGHFQDITSLTWSQDSRFILTTSKDLSAKIWSVDSEEKNLAATTFNGHRDYVMGAFFSHDQEKIYTVSKDGAVFVWEFTKRPSDDDDNESEDDDKQEEVDISKYSWRITKKHFFYANQAKVKCVTFHPATRLLAVGFTSGEFRLYDLPDFTLIQQLSMGQNPVNTVSVNQTGEWLAFGSSKLGQLLVYEWQSESYILKQQGHFDSTNSLAYSPDGSRVVTASEDGKIKVWDITSGFCLATFEEHTSSVTAVQFAKRGQVMFSSSLDGTVRAWDLIRYRNFRTFTGTERIQFNCLAVDPSGEVVCAGSLDNFDIHVWSVQTGQLLDALSGHEGPVSCLSFSQENSVLASASWDKTIRIWSIFGRSQQVEPIEVYSDVLALSMRPDGKEVAVSTLKGQISIFNIEDAKQVGNIDCRKDIISGRFNQDRFTAKNSERSKFFTTIHYSFDGMAIVAGGNNNSICLYDVPNEVLLKRFIVSRNMALNGTLEFLNSKKMTEAGSLDLIDDAGENSDLEDRIDNSLPGSQRGGDLSTRKMRPEVRVTSVQFSPTANAFAAASTEGLLIYSTNDTILFDPFDL | binds
5 | Mrd1p (protein, UniProt Q06106 1-887) MSRIIVKGLPVYLTDDNLREHFTKRLRQKHSHQAVNGSGPDLITDVKILRDRNGESRRFGFIGYRNEEDAFDAVEYFNGSFINTSKIEVSMAKSFADPRVPQPMKEKRREALKRFREKEEKLLQEENRKKKKVDENKHSNIDDEIRKNKQLQEFMETMKPSSQVTSWEKVGIDKSIEDEKLKREEEDSSVQGNSLLAHALALKEENNKDEAPNLVIENESDDEYSALNRNRDEDQEDAGEEEKMISISNLKDTDIGLVNDDANSDEKENEKRRNLAQDEKVSDLDWFKQRRVRIKESEAETREKSSSYATEQNESLDTKKEEQPERAVPQKTDEELAIEKINQTGRLFLRNILYTSKEEDFRKLFSPFGELEEVHVALDTRTGQSKGFAYVLFKDSKNAVNAYVELDKQIFQGRLLHILPGEEKKSHRLDEFDLKNMPLKKQKELKRKAAASRQTFSWNSLYMNQDAVLGSVAAKLGLEKSQLIDAENSSSAVKQALAEAHVIGDVRKYFESKGVDLTKFSQLKSTNQRDDKVILVKNFPFGTTREELGEMFLPYGKLERLLMPPAGTIAIVQFRDTTSARAAFTKLSYKRFKDGIIYLERGPKDCFTKPAEADDLINNTSAKEEENPVEVKPSSNDLMEANKDVTEGSSNAHDEDVIDGPTVSIFIKNLNFSTTNQNLTDRFKVFTGFVVAQVKTKPDPKHQGKTLSMGFGFVEFRTKEQANAVIAAMDGTVIDGHKIQLKLSHRQASQSGNTKTKSNKKSGKIIVKNLPFEATRKDVFELFNSFGQLKSVRVPKKFDKSARGFAFVEFLLPKEAENAMDQLHGVHLLGRRLVMQYAEEDAVDAEEEIARMTKKVRKQVATNEMAALRNGGGRKKLDVDDEENEGF | binds
6 | Pwp2p (wild type, plasmid-encoded, untagged) (protein, UniProt P25635 1-923) MKSDFKFSNLLGTVYRQGNITFSDDGKQLLSPVGNRVSVFDLINNKSFTFEYEHRKNIAAIDLNKQGTLLISIDEDGRAILVNFKARNVLHHFNFKEKCSAVKFSPDGRLFALASGRFLQIWKTPDVNKDRQFAPFVRHRVHAGHFQDITSLTWSQDSRFILTTSKDLSAKIWSVDSEEKNLAATTFNGHRDYVMGAFFSHDQEKIYTVSKDGAVFVWEFTKRPSDDDDNESEDDDKQEEVDISKYSWRITKKHFFYANQAKVKCVTFHPATRLLAVGFTSGEFRLYDLPDFTLIQQLSMGQNPVNTVSVNQTGEWLAFGSSKLGQLLVYEWQSESYILKQQGHFDSTNSLAYSPDGSRVVTASEDGKIKVWDITSGFCLATFEEHTSSVTAVQFAKRGQVMFSSSLDGTVRAWDLIRYRNFRTFTGTERIQFNCLAVDPSGEVVCAGSLDNFDIHVWSVQTGQLLDALSGHEGPVSCLSFSQENSVLASASWDKTIRIWSIFGRSQQVEPIEVYSDVLALSMRPDGKEVAVSTLKGQISIFNIEDAKQVGNIDCRKDIISGRFNQDRFTAKNSERSKFFTTIHYSFDGMAIVAGGNNNSICLYDVPNEVLLKRFIVSRNMALNGTLEFLNSKKMTEAGSLDLIDDAGENSDLEDRIDNSLPGSQRGGDLSTRKMRPEVRVTSVQFSPTANAFAAASTEGLLIYSTNDTILFDPFDLDVDVTPHSTVEALREKQFLNALVMAFRLNEEYLINKVYEAIPIKEIPLVASNIPAIYLPRILKFIGDFAIESQHIEFNLIWIKALLSASGGYINEHKYLFSTAMRSIQRFIVRVAKEVVNTTTDNKYTYRFLVSTDGSMEDGAADDDEVLLKDDADEDNEENEENDVVMESDDEEGWIGFNGKDNKLPLSNENDSSDEEENEKELP | binds
7 | Pwp2p-ΔC103 (aa 1–820) (domain or fragment, UniProt P25635 1-820) MKSDFKFSNLLGTVYRQGNITFSDDGKQLLSPVGNRVSVFDLINNKSFTFEYEHRKNIAAIDLNKQGTLLISIDEDGRAILVNFKARNVLHHFNFKEKCSAVKFSPDGRLFALASGRFLQIWKTPDVNKDRQFAPFVRHRVHAGHFQDITSLTWSQDSRFILTTSKDLSAKIWSVDSEEKNLAATTFNGHRDYVMGAFFSHDQEKIYTVSKDGAVFVWEFTKRPSDDDDNESEDDDKQEEVDISKYSWRITKKHFFYANQAKVKCVTFHPATRLLAVGFTSGEFRLYDLPDFTLIQQLSMGQNPVNTVSVNQTGEWLAFGSSKLGQLLVYEWQSESYILKQQGHFDSTNSLAYSPDGSRVVTASEDGKIKVWDITSGFCLATFEEHTSSVTAVQFAKRGQVMFSSSLDGTVRAWDLIRYRNFRTFTGTERIQFNCLAVDPSGEVVCAGSLDNFDIHVWSVQTGQLLDALSGHEGPVSCLSFSQENSVLASASWDKTIRIWSIFGRSQQVEPIEVYSDVLALSMRPDGKEVAVSTLKGQISIFNIEDAKQVGNIDCRKDIISGRFNQDRFTAKNSERSKFFTTIHYSFDGMAIVAGGNNNSICLYDVPNEVLLKRFIVSRNMALNGTLEFLNSKKMTEAGSLDLIDDAGENSDLEDRIDNSLPGSQRGGDLSTRKMRPEVRVTSVQFSPTANAFAAASTEGLLIYSTNDTILFDPFDLDVDVTPHSTVEALREKQFLNALVMAFRLNEEYLINKVYEAIPIKEIPLVASNIPAIYLPRILKFIGDFAIESQHIEFNLIWIKALLSASGGYINEHKYLFSTA | binds
